In article PMC12040169 (PLOS Biology, 2025):
The other results are listed elsewhere or left out.

The compounds below were run on T1, CTL2-GFP (C. trachomatis L2/434/Bu, GFP-expressing). Conditions: bulk GFP, single well; 28.5 h, 10 µM; inhibitor.
T1 construct: L2/434/Bu, GFP-expressing
Set-up: species or system HeLa; Intracellular C. trachomatis growth in HeLa cells, bulk GFP fluorescence relative to DMSO
In the case of `CC1CCCN(C(=O)CCc2nc3sc4c(c3c(=O)[nH]2)CCCC4)C1` (stereo not drawn) [CBK306073], the “% of control remaining” value is reported as 120.359%.
For `Cn1ncc(N)c1C(=O)Nc1cccc(Cl)c1` [CBK270107], the “% of control remaining” value was 141.022%.
`O=C1NC2(CCN(C(=O)c3cccs3)CC2)Oc2ccccc21` [CBK283998] was tested, and the “% of control remaining” value was 142.728%.
In the case of `N#Cc1cnc2c(-c3ccccc3)c(Cc3ccccc3)nn2c1N` [CBK270191], the “% of control remaining” value is reported as 131.18%.
`COc1cc(CNc2cc(-c3cccc4oc5ccccc5c34)ncn2)cc(OC)c1OC` [CBK091177] was tested, and the “% of control remaining” value was 202.615%.
For `Cc1cc2ccccc2n2c(SCCC(=O)Nc3ccc(C(C)(C)C)cc3)nnc12` [CBK265639], the “% of control remaining” value was 100%.
With `O=C(c1ccc(F)cc1)N1CCCC(c2nccnc2-c2cccc(C(F)(F)F)c2)C1` (stereo not drawn) [CBK286142] the “% of control remaining” value was 124.622%.
`CN1Cc2ccccc2CC1C(=O)N1CCCC12CC=CC2` (stereo not drawn) [CBK282838] was tested, and the “% of control remaining” value was 134.493%.
For `Cc1ccc(S(=O)(=O)NCCSc2nnc(N)s2)cc1` [CBK266300], the “% of control remaining” value was 99.8683%.
`O=C(c1ccccc1Br)N1CCN(c2ccc([N+](=O)[O-])c(NCc3cccnc3)c2)CC1` [CBK265735] was tested, and the “% of control remaining” value was 180.034%.
With `CCn1c(SC(C)C(N)=O)nc2ccc(Br)cc2c1=O` (stereo not drawn) [CBK306424] the “% of control remaining” value was 100.515%.
`CCOC(=O)C1=C(C)NC(=O)NC1c1ccc(-c2ccccc2F)o1` (stereo not drawn) [CBK263867] was tested, and the “% of control remaining” value was 100%.
With `C1=CCC(CN(CCCn2ccnc2)Cc2cccnc2)CC1` (stereo not drawn) [CBK283216] the “% of control remaining” value was 119.418%.
For `Cc1nc(C(Cc2ccsc2)NC(=O)C2CCCNC2)sc1C` (stereo not drawn) [CBK282228], the “% of control remaining” value was 152.241%.
`C=CCn1c(COc2cccc3ccc(C)nc23)nnc1SC` [CBK266608] was tested, and the “% of control remaining” value was 98.6365%.
In the case of `O=C(COc1ccc([N+](=O)[O-])cc1)Nc1ccc(S(=O)(=O)N2CCCCC2)cc1` [CBK265003], the “% of control remaining” value is reported as 108.178%.
`OC(CN1CCC(O)(c2ccc(F)cc2)CC1)c1ccc(F)cc1` (stereo not drawn) [CBK282510] was tested, and the “% of control remaining” value was 131.938%.
With `Cc1ccc2c(c1)CCCN2C(=O)c1csc2c(C(F)(F)F)cc(N3CCOCC3)nc12` [CBK028367] the “% of control remaining” value was 54.8973%.
`O=C(c1cnccn1)N1CCC(Cc2ccccc2)CC1` [CBK200181] was tested, and the “% of control remaining” value was 101.733%.
`COc1cccc(CN2CCCC(NC(=O)c3ccccc3Cl)C2)c1` (stereo not drawn) [CBK306774] was tested, and the “% of control remaining” value was 69.7044%.
With `O=C(NCCc1ccc(O)cc1)c1ccc2[nH]ccc2c1` [CBK149063] the “% of control remaining” value was 118.632%.
In the case of `O=C(Nc1ccc2ncccc2c1)c1ccc(F)c(F)c1` [CBK159810], the “% of control remaining” value is reported as 113.566%.
With `CC(=O)Nc1ccc(-c2ccc3n(c2=O)C[C@H]2C[C@@H]3CN(C(=O)C3CCCCC3)C2)cc1` [CBK289188] the “% of control remaining” value was 109.104%.
`O=C(Cn1cc(C(=O)Nc2cc(F)ccc2N2CCCC2)ccc1=O)NC1CCCCC1` [CBK285981] was tested, and the “% of control remaining” value was 100.355%.
For `Cc1ccccc1C(=O)NCCNC(=O)c1nonc1N` [CBK267677], the “% of control remaining” value was 93.2531%.
`Brc1cnc(OCc2ccccc2)nc1OCc1ccccc1` [CBK261274] was tested, and the “% of control remaining” value was 100%.
For `N#CCC(=O)Nc1ccc(F)c(Cl)c1` [CBK085905], the “% of control remaining” value was 134.355%.
For `NC(=O)c1ccccc1NC(=O)CN1CCN(Cc2cccc(Cl)c2)CC1` [CBK270320], the “% of control remaining” value was 143.392%.
In the case of `CCN(CC)C(=O)c1ccccc1NS(=O)(=O)Cc1ccccc1[N+](=O)[O-]` [CBK045428], the “% of control remaining” value is reported as 129.851%.
For `CCCCn1nnnc1NCc1cccc(OC)c1OC` [CBK288091], the “% of control remaining” value was 123.638%.
For `C[C@@H](Cn1nc2c(cc1=O)CCCC2)NC(=O)Cc1ccc(F)cc1` [CBK284526], the “% of control remaining” value was 129.891%.
With `CSc1cccc(NC(=S)N2CCC(N(C)C(C)C)CC2)c1` [CBK294463] the “% of control remaining” value was 165.201%.
In the case of `COc1ccccc1-c1noc(CCCC(=O)Nc2cccc(C(F)(F)F)c2)n1` [CBK268794], the “% of control remaining” value is reported as 155.352%.
With `CN1CCN(Cc2nc3c(c(=O)n(C)c(=O)n3C)n2Cc2ccc(Br)cc2)CC1` [CBK269310] the “% of control remaining” value was 164.384%.
`Cc1cc(CN(C)Cc2cn(C)c3cc(F)ccc23)n[nH]1` [CBK281710] was tested, and the “% of control remaining” value was 116.534%.
In the case of `COC(CNC(=O)Cn1nnnc1CN1CCC(C)CC1)c1cccs1` (stereo not drawn) [CBK306958], the “% of control remaining” value is reported as 119.569%.
With `CCn1c(=O)n(CCC(=O)NC(C(N)=O)c2ccccc2)c2ccccc21` (stereo not drawn) [CBK295196] the “% of control remaining” value was 170.712%.
For `Nc1ccc(Oc2nc(Oc3ccc(N)cc3)c(F)c(Oc3ccc(N)cc3)c2F)cc1` [CBK266397C], the “% of control remaining” value was 164.377%.
In the case of `CCn1ncc2c1CCCC2NC1CCN(c2ccccc2F)C1=O` (stereo not drawn) [CBK305279], the “% of control remaining” value is reported as 108.65%.
In the case of `COc1ccccc1NC(=O)N1C[C@@H]2C[C@H](C1)c1ccc(-c3cncnc3)c(=O)n1C2` [CBK289186], the “% of control remaining” value is reported as 126.227%.
For `O=C1CC2(CCN(C(=O)C3CCCCC3)CC2)Oc2ccc(F)cc21` [CBK282863], the “% of control remaining” value was 91.6909%.
`CCCCC1(COC(C)=O)OC(=O)Nc2ccc(Br)cc21` (stereo not drawn) [CBK010195] was tested, and the “% of control remaining” value was 146.086%.
`O=C(O)C1CCCCC1C(=O)Nc1cccc2ccccc12` (stereo not drawn) [CBK261569] was tested, and the “% of control remaining” value was 100%.
In the case of `OCCN(CCO)c1nc(-c2ccccc2)nc2sc(-c3ccccc3)cc12` [CBK265935], the “% of control remaining” value is reported as 105.232%.
With `COCCNC(=O)CSc1cc(Cl)nc(Cl)c1` [CBK020796] the “% of control remaining” value was 116.013%.
In the case of `Cc1cc(C)cc(OCC(=O)Nc2c(C#N)c(C)nn2C)c1` [CBK304791], the “% of control remaining” value is reported as 113.144%.
With `O=C(N[C@H]1CCN2C(=O)c3cc(-c4ccccc4F)ccc3NC(=O)[C@@H]2C1)c1cnccn1` [CBK289558] the “% of control remaining” value was 120.449%.
In the case of `CS(=O)(=O)N1CC2(CCN(CCc3c[nH]c4ccccc34)CC2)c2ccccc21` [CBK084017T], the “% of control remaining” value is reported as 125.387%.
For `COc1ccc(C(=O)N2CCC3(CCN(Cc4c(F)cccc4F)C3)C2)cc1OC` (stereo not drawn) [CBK132152], the “% of control remaining” value was 61.7418%.
`CC(=O)Nc1ccc(-c2ccc(=O)n3c2[C@@H]2C[C@@H](CN(C(=O)c4ccccc4)C2)C3)cc1` [CBK289198] was tested, and the “% of control remaining” value was 111.021%.
With `Cc1cc(COc2nc3ccccc3nc2NC[C@@H]2CCCO2)no1` [CBK174027] the “% of control remaining” value was 106.771%.
For `COc1cccc(OCC(=O)O/N=C(\N)c2ccncc2)c1` [CBK262592], the “% of control remaining” value was 100%.
In the case of `Cc1[nH]c(=O)[nH]c(=O)c1C(=O)Nc1ccccc1` [CBK116181], the “% of control remaining” value is reported as 93.6779%.
`CN(C)c1ccc(C(=O)N2CCN3C(=O)[C@H](Cc4ccc(F)cc4)NC(=O)[C@H]3C2)cc1` [CBK289601] was tested, and the “% of control remaining” value was 96.1571%.
For `CCCCSc1nc(N)cc(N2CCC(C(=O)NCC)C2)n1` (stereo not drawn) [CBK306880], the “% of control remaining” value was 87.1163%.
`CCOc1cccc(CNC(=O)N2CCC(Cc3cnn(C)c3)C2)c1` (stereo not drawn) [CBK305280] was tested, and the “% of control remaining” value was 107.221%.
For `COC(=O)c1c(NC(=S)Nn2cnnc2)sc2c1CCC(C)C2` (stereo not drawn) [CBK266942], the “% of control remaining” value was 167.769%.
`CCc1nc2ccc(C(=O)NCC3CCCCC3)cn2c1N(C)Cc1ccc(OC)cc1` [CBK145568] was tested, and the “% of control remaining” value was 168.63%.
With `OCCn1ncc2c(NCc3nncn3-c3ccccc3)ncnc21` [CBK304608] the “% of control remaining” value was 165.391%.
`O=C(O)[C@H]1CN(C(=O)c2ccco2)C[C@@H]1c1ccc(F)cc1` [CBK283735] was tested, and the “% of control remaining” value was 105.83%.
With `COC(=O)CCn1c(=O)c2c(nc3oc(C)c(C)n32)n(C)c1=O` [CBK306033] the “% of control remaining” value was 120.549%.
`Cn1nc(C(=O)NCC(c2ccccc2Cl)N2CCOCC2)ccc1=O` (stereo not drawn) [CBK305886] was tested, and the “% of control remaining” value was 111.051%.
For `CC(=O)Oc1ccc(NC(=O)C2CC(Cl)=CCC2C(=O)O)cc1C(=O)O` (stereo not drawn) [CBK265372], the “% of control remaining” value was 98.3377%.
In the case of `CCCNC(=O)C1(Cc2ccccc2-c2cccs2)CCN(C(=O)c2ccccc2)CC1` [CBK285694], the “% of control remaining” value is reported as 121.945%.
`Cc1ccc(S(=O)(=O)NCCSCc2ccc(Cl)c(Cl)c2)cc1[N+](=O)[O-]` [CBK264675] was tested, and the “% of control remaining” value was 102.702%.
`Cc1[nH]c(=O)c(C(=O)N(C)C(C)c2ccc(Cl)cc2)cc1-c1ccc(O)cc1` (stereo not drawn) [CBK291225] was tested, and the “% of control remaining” value was 128.127%.
`OCCSc1ccc(C(F)(F)F)cn1` [CBK028739] was tested, and the “% of control remaining” value was 96.7653%.
With `O=C(COc1ccc2ccccc2c1Br)NCCN1CCOCC1` [CBK267391] the “% of control remaining” value was 171.74%.
In the case of `Oc1c(-c2ccc(Cl)cc2)c2nc3ccccc3nc2c2ccccc12` [CBK261628], the “% of control remaining” value is reported as 100%.
`CC(=O)NC1CCN(CC2(c3ccccc3F)CCCC2)CC1` [CBK282591] was tested, and the “% of control remaining” value was 127.958%.
In the case of `COc1ccc(NC(=O)CCN2C(=O)c3ccccc3S2(=O)=O)cc1` [CBK265863], the “% of control remaining” value is reported as 102.854%.
For `CCC(C)C(=O)N1CCC(c2nnc3n2CCCCC3)CC1` (stereo not drawn) [CBK282260], the “% of control remaining” value was 136.133%.
In the case of `COc1ccccc1CCCN1CCC2(C1)c1[nH]c3ccccc3c1CCN2S(C)(=O)=O` (stereo not drawn) [CBK074095], the “% of control remaining” value is reported as 74.9629%.
`Cc1cc(C[C@@H]2COC[C@H]2NCc2cccs2)on1` [CBK282999] was tested, and the “% of control remaining” value was 121.314%.
For `Cc1ccc(S(=O)(=O)NC(CC(=O)O)c2ccccc2)cc1` (stereo not drawn) [CBK261307], the “% of control remaining” value was 107.308%.
In the case of `CCc1ccc(CNC(=O)Cn2nnc(-c3ccc(CN4CCC(C)CC4)nc3SC)n2)cc1` [CBK156205T], the “% of control remaining” value is reported as 110.048%.
`O=C(Nc1ccc(=O)n2c1[C@@H]1C[C@@H](CN(C(=O)Nc3ccc(F)cc3)C1)C2)c1ccccc1` [CBK288715] was tested, and the “% of control remaining” value was 120.542%.
`Cc1c(NC(=O)C2CCN(c3ccccc3Cl)C2)nnn1C` (stereo not drawn) [CBK306263] was tested, and the “% of control remaining” value was 151.66%.
